Assay results taken from publication PMC8565929 (eLife, 2021).
Where two headings read alike, the source gives them in different places. No constants are given. Whether binding was seen depends on the method and setting. Binding seen in cells or lysates may run through a third protein. Some entries that bind do so weakly or less than the wild type. Where a sequence is shown, tags or fusion partners need not be part of it.

B1: TAP-tagged Hst4 (pREP81 vector) (protein, UniProt Q9UR39 1-415)
chain: MKVEEHVPLIQESRKRKCQSSENASKRQQLLSKLPLRLHTGNENVDLSPLVSAIRKAKRIVVVTGAGISCDAGIPDFRSSEGLFSSLRAEYKLNCSGKELFDGSVYRDLKSVNIFHAMIRKLHMLSNNARPTDFHLFLSQLAQESKLLRLYTQNIDFLETRLEGLQTCIPLPQSAPWPTTIPLHGTLEVVSCTRCSFLKKFNPDIFDRNGVTVCPDCKTENEVRRIAGKRSVIEGCLRPRIVLYNEIHPDSESIGSVCSQDLKSRPDCLIVAGTSCKIPGVKRIIKEMSNCVHKQKGNVIWLNYDEPTKDFLNLCDLVVQGDLQIAIRRLKPLLDAPSWKLKSHSAKRTSKQKSSEQTKITSSTKITKAIGLNTKSNDSSKKDNTSFQLHQVLNSIEIPKVEIKQEVEYATPSPL
B2: Hst4-TAP (genomic TAP-tagged Hst4) (protein, UniProt Q9UR39 1-415)
chain: B1 chain

Legend:
[1] = target: T1, DDK (Hsk1-HA with Dfp1-myc) (S. pombe) (UniProt P50582+O59836); assay: cross-linking + co-IP
T1 sequence 1: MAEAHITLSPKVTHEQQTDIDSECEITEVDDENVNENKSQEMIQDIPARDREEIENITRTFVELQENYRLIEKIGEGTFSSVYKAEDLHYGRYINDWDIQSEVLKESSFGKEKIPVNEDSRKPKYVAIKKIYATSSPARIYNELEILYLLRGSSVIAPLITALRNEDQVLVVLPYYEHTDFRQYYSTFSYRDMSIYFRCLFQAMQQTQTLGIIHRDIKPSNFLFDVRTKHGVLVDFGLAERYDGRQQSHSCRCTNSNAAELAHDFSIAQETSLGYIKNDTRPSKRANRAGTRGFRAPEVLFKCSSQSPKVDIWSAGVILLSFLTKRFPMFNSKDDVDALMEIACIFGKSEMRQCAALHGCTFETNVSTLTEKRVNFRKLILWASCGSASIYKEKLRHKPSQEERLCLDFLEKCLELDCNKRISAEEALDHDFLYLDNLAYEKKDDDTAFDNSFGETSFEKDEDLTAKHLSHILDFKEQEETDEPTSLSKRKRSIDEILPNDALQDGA
T1 sequence 2: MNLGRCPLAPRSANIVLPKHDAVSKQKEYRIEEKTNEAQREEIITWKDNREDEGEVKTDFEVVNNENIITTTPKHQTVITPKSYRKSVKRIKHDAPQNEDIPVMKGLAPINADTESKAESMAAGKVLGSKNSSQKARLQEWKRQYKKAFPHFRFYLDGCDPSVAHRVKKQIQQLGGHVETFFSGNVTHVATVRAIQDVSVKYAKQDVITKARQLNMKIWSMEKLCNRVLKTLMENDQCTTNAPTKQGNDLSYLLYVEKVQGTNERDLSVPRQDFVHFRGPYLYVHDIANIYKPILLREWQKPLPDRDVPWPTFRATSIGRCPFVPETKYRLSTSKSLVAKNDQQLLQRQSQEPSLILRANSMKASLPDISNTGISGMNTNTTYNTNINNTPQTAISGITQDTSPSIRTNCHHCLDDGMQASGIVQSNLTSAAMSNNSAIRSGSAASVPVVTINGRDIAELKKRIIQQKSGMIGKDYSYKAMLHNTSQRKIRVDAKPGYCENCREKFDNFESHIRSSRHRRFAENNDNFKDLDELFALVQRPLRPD

[2] = target: T2, HA-Pof3 (pSLF272 vector) (S. pombe) (UniProt O74991); assay: co-IP
T2 sequence: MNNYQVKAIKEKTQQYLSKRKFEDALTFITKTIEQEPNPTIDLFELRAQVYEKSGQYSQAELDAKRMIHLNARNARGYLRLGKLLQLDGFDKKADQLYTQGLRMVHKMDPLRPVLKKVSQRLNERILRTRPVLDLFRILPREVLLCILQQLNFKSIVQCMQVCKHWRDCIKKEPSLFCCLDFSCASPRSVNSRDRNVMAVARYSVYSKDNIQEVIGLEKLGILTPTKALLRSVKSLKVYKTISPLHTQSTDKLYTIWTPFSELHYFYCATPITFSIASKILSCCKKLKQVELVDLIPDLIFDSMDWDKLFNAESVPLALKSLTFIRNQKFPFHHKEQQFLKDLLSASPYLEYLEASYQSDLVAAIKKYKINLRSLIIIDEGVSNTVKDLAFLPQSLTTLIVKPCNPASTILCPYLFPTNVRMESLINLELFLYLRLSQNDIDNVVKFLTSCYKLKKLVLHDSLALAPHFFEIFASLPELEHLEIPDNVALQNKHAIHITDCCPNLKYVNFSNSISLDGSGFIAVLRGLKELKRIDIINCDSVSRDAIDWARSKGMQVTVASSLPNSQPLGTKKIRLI

[3] = target: T2, HA-Pof3 (pSLF272 vector) (S. pombe); assay: co-IP; remark: listed apart in the source

Row | Binder | binding [1] | binding [2] | binding [3]
1 | B1 | binds |  | 
2 | B2 |  | binds | binds
